Measurements as given in patent publication US20030008334A1.
No constants are given. Whether binding was seen depends on the method and setting.

Amino acid sequences for entries named in this document (tags omitted). A change or cut given only in a name is not applied to a line headed by its entry.
UniProt P32507: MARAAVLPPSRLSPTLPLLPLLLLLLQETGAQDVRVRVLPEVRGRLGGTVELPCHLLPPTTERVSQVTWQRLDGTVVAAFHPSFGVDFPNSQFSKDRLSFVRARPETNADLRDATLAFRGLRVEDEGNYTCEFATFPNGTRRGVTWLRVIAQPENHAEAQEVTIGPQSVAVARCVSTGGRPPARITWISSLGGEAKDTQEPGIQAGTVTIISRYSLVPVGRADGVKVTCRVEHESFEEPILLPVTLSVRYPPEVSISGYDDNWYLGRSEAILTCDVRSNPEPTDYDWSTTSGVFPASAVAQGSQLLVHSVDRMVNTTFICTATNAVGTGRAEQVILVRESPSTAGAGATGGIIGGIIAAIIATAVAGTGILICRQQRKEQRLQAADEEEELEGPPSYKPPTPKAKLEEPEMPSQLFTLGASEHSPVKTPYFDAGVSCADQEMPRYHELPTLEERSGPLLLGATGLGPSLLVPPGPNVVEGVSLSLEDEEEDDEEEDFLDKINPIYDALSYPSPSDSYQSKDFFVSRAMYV

Target: Full-length mouse nectin-2α expressed on L cells (nectin-2α-L cells) (mouse) (UniProt P32507)
Experiment: mixed-cell aggregation assay and immunofluorescence microscopy of co-cultured L cell lines (trans interaction)

binding: no binding
B1: Full-length human nectin-1α expressed on L cells (nectin-1α-L cells) (receptor, UniProt Q15223 31-517, looked up)
chain: QVVQVNDSMYGFIGTDVVLHCSFANPLPSVKITQVTWQKSTNGSKQNVAIYNPSMGVSVLAPYRERVEFLRPSFTDGTIRLSRLELEDEGVYICEFATFPTGNRESQLNLTVMAKPTNWIEGTQAVLRAKKGQDDKVLVATCTSANGKPPSVVSWETRLKGEAEYQEIRNPNGTVTVISRYRLVPSREAHQQSLACIVNYHMDRFKESLTLNVQYEPEVTIEGFDGNWYLQRMDVKLTCKADANPPATEYHWTTLNGSLPKGVEAQNRTLFFKGPINYSLAGTYICEATNPIGTRSGQVEVNITEFPYTPSPPEHGRRAGPVPTAIIGGVAGSILLVLIVVGGIVVALRRRRHTFKGDYSTKKHVYGNGYSKAGIPQHHPPMAQNLQYPDDSDDEKKAGPLGGSSYEEEEEEEEGGGGGERKVGGPHPKYDEDAKRPYFTVDEAEARQDGYGDRTLGYQYDPEQLDLAENMVSQNDGSFISKKEWYV
